Reference: patent US20060252930A1 (priority 2003, published 2006)
In brackets after ≈: the same amount, converted by molar mass.

How the values were obtained:
Format in all cases: cell-based
Settings in all cases: for Ratio (enhancing activity): set as 1.0
[1] = system: fluconazole resistant Candida albicans ATCC 64550; experiment: microbe, parasite or virus in culture
Procedure: (§1) Candida albicans ATCC 64548, fluconazole resistant Candida albicans ATCC 64550 and Aspergillus niger ATCC 6275 were used as test organisms.
(§2) Enhancing activity of azole antifungal agent on Candida albicans ATCC 64548 and ATCC 64550 was determined by yeast susceptibility test method, National Committee for Clinical Standard (NCCLS) Standard Method M27-A. Each suspension of inoculating strain was spread over YM agar medium (0.5% yeast extract, 0.5% malt extract, 0.5% peptone, 1% glucose and 1.5% agar) and cultured at 35° C. for 36 hours. Five grown colonies with a diameter 1 mm or more were collected and the colonies were suspended in physiological saline 5 ml. The suspension was further diluted with physiological saline to prepare the test microorganism suspension having McFarland transmittance 0.5. RPMI 1640 medium 70 μl was added into 96 well plastic plate (Corning Inc., U.S.). […] Finally, the test microorganism suspension 100 μl was added and incubated at 35° C. for 24 hours. […] When IC50 value without addition of FKI-1366 substance A, FKI-1366 substance B or FKI-1366 substance C was set as 1.0, a ratio of IC50 with addition of FKI-1366 substance A, FKI-1366 substance B or FKI-1366 substance C was determined as the enhancing activity.

[2] = system: Aspergillus niger ATCC 6275; experiment: Enhancing activity of azole antifungal agent, susceptibility test for conidiogenous fungi NCCLS M38-P (Alamar Blue)
Procedure: as §1
Enhancing activity of azole antifungal agent on Aspergillus niger ATCC 6275 was determined by the drug susceptibility test method for conidiogenous fungi proposed by NCCLS (M38-P). Spores of the strain of Aspergillus niger ATCC 6275 were suspended in the physiological saline to maintain a value at OD 530 nm being 0.09-0.11. The suspension was further diluted 100 times with PRMI1640 medium to prepare inoculating microorganism solution. […] Further, FKI-1366 substance A, FKI-1366 substance B or FKI-1366 substance C, 10 μl, each of which was prepared for maintaining the final concentration of 2.5, 5.0 and 10 μg/ml, was added. Finally, the test microorganism suspension 80 μl was added. Alamar Blue solution (Asahi Glass Co., Japan) 20 μl, a coloring reagent, was added thereto and incubated at 35° C. for 24 hours. […] When IC50 value without addition of FKI-1366 substance A, FKI-1366 substance B or FKI-1366 substance C was set as 1.0, a ratio of IC50 with addition of FKI-1366 substance A, FKI-1366 substance B or FKI-1366 substance C was determined as the enhancing activity.

[3] = system: Candida albicans ATCC 64548; experiment: Enhancing activity of azole antifungal agent, yeast susceptibility test NCCLS M27-A
Procedure: as §1, §2

[4] = Table 1, miconazole alone (control)
[5] = Table 2 (fluconazole), control, azole alone

## Clc1ccc(COC(Cn2ccnc2)c2ccc(Cl)cc2Cl)c(Cl)c1 (stereo not drawn) [miconazole, reference compound]
[1]; Candida albicans, ATCC64550, Table 1, miconazole alone (control), 35° C., 24 hours, read-out: IC50 of azole antifungal agent
  IC50: 0.6 µg/mL (≈ 1.44 µM)
[1]; [4]
  Ratio (enhancing activity): 1.0
[1]; [5]
  Ratio (enhancing activity): 1.0
[2]; Aspergillus niger, ATCC6275, Table 1, miconazole alone (control), 35° C., 24 hours
  IC50: 12.5 µg/mL
[2]; [4]
  Ratio (enhancing activity): 1.0
[2]; [5]
  Ratio (enhancing activity): 1.0
[3]; Candida albicans, ATCC64548, Table 1, miconazole alone (control), 35° C., 24 hours
  IC50: 11 µg/mL
[3]; [4]
  Ratio (enhancing activity): 1.0
[3]; [5]
  Ratio (enhancing activity): 1.0
